Assay results from patent US20260234116A1, “CYTOTOXIC EPOXYKETONE COMPOUNDS, PRECURSORS, COMPOSITIONS, AND METHODS OF USE” (Memorial Sloan-Kettering Cancer Center, priority 2023, published 2026).
Some of these results come from one statement about several compounds together. Some compounds share one range, which may span the group rather than tell each member.

Key:
[1] = test system: EL4 (mouse lymphoma) cells; assay: Cytotoxicity of decarboxylation byproduct 22a and purified EpnF enzyme, CellTitre-Glo, 48 h; assay type: cell-based; details: EL4, 48 h (FIG. 3 legend)
[2] = test system: chymotrypsin-like activity of the proteasome, Jurkat cell lysates; assay: Proteasome inhibition assay (abcam Proteasome Activity Assay Kit); assay type: biochemical; details: 10 μM concentration, 1 h at 37° C.
Method: Epoxyketones 12 were analyzed for proteasome inhibition using a Proteasome Activity Assay Kit (abcam ab107921). The protocol was followed as described by the manufacturer, except that the proteasome sample supplied in the kit was diluted by 10-fold more than indicated in the manual to increase the number of samples that could be analyzed per kit. Thus, the supplied proteasome sample was resuspended in 100 μL ddH2O, then further diluted with 900 μL of the supplied assay buffer. The supplied proteasome inhibitor, MG-132 (benzyl [(2S)-4-methyl-1-{[(2S)-4-methyl-1-{[(2S)-4-methyl-1-oxopentan-2-yl]amino}-1-oxopentan-2-yl]amino}-1-oxopentan-2-yl]carbamate; structure illustrated below), was also diluted 10-fold to a working concentration of 1 mM in DMSO. The epoxyketones 12 and epoxomicin positive control (Selleck Chemicals) were also diluted to working stocks of 1 mM in DMSO. Proteasome samples (99 μL) were added to a white, opaque 96-well plate (PerkinElmer, OptiPlate-96) and treated with 1 μL of compound solutions (10 μM final concentration). Samples were incubated for 1 h at 37° C. then analyzed for fluorescence (λ^ex 350 nm, λ^em 440 nm) on a plate reader (Molecular Devices Spectramax M3). Three separate assay kits were used as biological replicates. Data were normalized to the average signal from the no-inhibitor negative control. To test whether or not these cytotoxic eponemycin analogues were also proteasome inhibitors, we tested them in an in vitro assay using Jurkat cell lysates having proteasome activity and a fluorescent substrate that is cleaved by the chymotrypsin-like activity of the proteasome (abcam, Proteasome Activity Assay Kit). […] Rank ordering generally mirrored that seen in the cell cytotoxicity assay, consistent with proteasome inhibition as a mechanism of action.

SMILES | no cytotoxicity at up to (concentration) [1] [mM] | inhibition of proteasome activity [2]
CC(C)CCCCC(=O)N[C@@H](CO)C(=O)N[C@@H](CC(C)C)C(=O)C(C)(C)C(=O)O [Compound 11a, (4S)-4-[(2S)-3-Hydroxy-2-(6-methylheptanamido)propanamido]-2,2,6-trimethyl-3-oxoheptanoic acid] | > 50 | 
CC(C)CCCCC(=O)N[C@@H](C)C(=O)N[C@@H](CC(C)C)C(=O)[C@@]1(C)CO1 [Compound 12j, 6-Methyl-N-[(1S)-1-{[(2S)-4-methyl-1-[(2R)-2-methyloxiran-2-yl]-1-oxopentan-2-yl]carbamoyl}ethyl]heptanamide] |  | 21-55%
CC(C)CCCCC(=O)N[C@H](C(=O)N[C@@H](CC(C)C)C(=O)[C@@]1(C)CO1)[C@@H](C)O [Compound 12l, N-[(1S)-2-Hydroxy-1-{[(2S)-4-methyl-1-[(2R)-2-methyloxiran-2-yl]-1-oxopentan-2-yl]carbamoyl}propyl]-6-methylheptanamide] |  | 21-55%
CCCC(=O)N[C@@H](CO)C(=O)N[C@@H](CC(C)C)C(=O)[C@@]1(C)CO1 [Compound 12n] |  | 21-55%
CC(C)C[C@H](NC(=O)[C@H](CO)NC(=O)c1ccccc1)C(=O)[C@@]1(C)CO1 [Compound 12o, (2S)-3-Hydroxy-N-[(2S)-4-methyl-1-[(2R)-2-methyloxiran-2-yl]-1-oxopentan-2-yl]-2-(phenylformamido)propenamide] |  | 21-55%
